PubChem BioAssay AID1259308 | NCATS – 2017

Screen: 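Candidate targets for better recombinant protein yield in mammalian cells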 (primary screen)
Cells: human HEK293 embryonic kidney cells stably expressing firefly luciferase (HEK-CMV-Luc2-Hygro)
Reagent: single siRNA against human genes, 0.8 pmol siRNA per well
Duration: 72 h
Measured: 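Reporter luminescence and viable-cell signal on separate replicate plates, given as percent of non-targeting control and median/MAD z-scores, plus per-cell luciferase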
Reading the numbers: total luciferase, z-score and total luciferase, % of control: higher = more reporter protein produced; luciferase per cell, z-score: higher = more reporter output per viable cell; viable cells, % of control: higher = more viable cells
Call rule: 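Active when the median/MAD z-score for overall luciferase is greater than 3; a gene was taken forward for validation with new siRNAs if at least two of its three siRNAs passed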
Calls: active = raised luciferase; inactive = no rise
In all, the deposit lists about 59,000 reagents; below is an unselected part. About 1,510 of all reagents (2.6%) count as active. 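Calls use total luciferase alone and ignore viability, so some active siRNAs may act by altering cell number.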 Unmarked entries are inactive. The numbers tell different reagents against one gene apart. No sequences are given here.

| Gene | siRNA no. | total luciferase, z-score | total luciferase, % of control | luciferase per cell, z-score | viable cells, % of control |
| --- | --- | --- | --- | --- | --- |
| MUCL1 (GeneID 118430) | 1 | -0.592 | 70.1 | 0.095 | 76.4 |
| MUCL1 (GeneID 118430) | 2 | -0.344 | 75.1 | -0.00418 | 84 |
| MUCL1 (GeneID 118430) | 3 | 1.9 | 120 | 0.782 | 109 |
| FAM234A (GeneID 83986) | 1 | 0.117 | 84.2 | -0.826 | 117 |
| FAM234A (GeneID 83986) | 2 | -0.677 | 68.4 | 0.212 | 72.3 |
| FAM234A (GeneID 83986) | 3 | 0.855 | 98.9 | 0.554 | 95.5 |
| RBPJ (GeneID 3516) | 1 | -0.178 | 78.3 | -0.395 | 97.1 |
| RBPJ (GeneID 3516) | 2 | -1.15 | 59 | -0.95 | 84.6 |
| RBPJ (GeneID 3516) | 3 | 0.692 | 95.7 | -0.183 | 112 |

In a second layout: 3 of the entries above.
{"Gene": "MUCL1 (GeneID 118430)", "siRNA no.": 2, "total luciferase, z-score": -0.344, "total luciferase, % of control": 75.1, "luciferase per cell, z-score": -0.00418, "viable cells, % of control": 84}
{"Gene": "MUCL1 (GeneID 118430)", "siRNA no.": 3, "total luciferase, z-score": 1.9, "total luciferase, % of control": 120, "luciferase per cell, z-score": 0.782, "viable cells, % of control": 109}
{"Gene": "FAM234A (GeneID 83986)", "siRNA no.": 1, "total luciferase, z-score": 0.117, "total luciferase, % of control": 84.2, "luciferase per cell, z-score": -0.826, "viable cells, % of control": 117}

Further entries follow:
| Gene | siRNA no. | total luciferase, z-score | total luciferase, % of control | luciferase per cell, z-score | viable cells, % of control |
| --- | --- | --- | --- | --- | --- |
| DEFB112 (GeneID 245915) | 1 | -0.0328 | 81.2 | -0.137 | 94.1 |
| DEFB112 (GeneID 245915) | 2 | -0.749 | 67 | 0.921 | 58.7 |
| DEFB112 (GeneID 245915) | 3 | -1.3 | 56 | -0.869 | 78.7 |
| MT3 (GeneID 4504) | 1 | -1.21 | 57.8 | -0.461 | 72.9 |
| MT3 (GeneID 4504) | 2 | 1.67 | 115 | 0.514 | 112 |
| MT3 (GeneID 4504) | 3 | -0.0702 | 80.5 | 0.113 | 87.3 |
| LINC02873 (GeneID 283171) | 1 | 1.03 | 102 | 1.39 | 79.3 |
| LINC02873 (GeneID 283171) | 2 | 0.549 | 92.8 | 0.806 | 83.9 |
| LINC02873 (GeneID 283171) | 3 | 1.76 | 117 | 2.32 | 70.9 |
| MYBL2 (GeneID 4605) | 1 | -0.0892 | 80.1 | 0.479 | 78.9 |
| MYBL2 (GeneID 4605) | 2 | -1.18 | 58.4 | -0.41 | 72.7 |
| MYBL2 (GeneID 4605) | 3 | -1.07 | 60.6 | -0.75 | 82.6 |
| CTAG2 (GeneID 30848) | 1 | 1.18 | 105 | 1.07 | 88.9 |
| CTAG2 (GeneID 30848) | 2 | 1.16 | 105 | 0.94 | 91.6 |
| CTAG2 (GeneID 30848) | 3 | -0.138 | 79.1 | 0.303 | 81.6 |
